The series is described as follows: general procedure: Fmoc solid-phase peptide synthesis; 2-CTC resin; DIC/HOBt. Conditions: whole synthesis.

Data on one substance can be found in patent US12600759 (dated 2026).

Consider “H-His-Ala-Glu-Gly-Thr-Phe-Thr-Ser-Asp-Val-Ser-Ser-Tyr-Leu-Glu-Gly-Gln-Ala-Ala-Lys (γ-Glu-palmitoyl)-Glu-Phe-Ile-Ala-Trp-Leu-Val-Arg-Gly-Arg-Gly-OH (SEQ ID NO: 1)”, for which the “final HPLC purity” value (HPLC / UPLC) is “not less than 99.0%”. The isolated yield (isolated yield) is given as 9-12%.
